Laboratory results from the supplement of paper PMC6078165.

Test system: Hs578T
Test: relative JC-1 red fluorescence (viability) vs pre-drug, coculture with fibroblast (fraction); higher = more viable cancer cells
Protocol: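 JC-1 labelled TNBC cells cocultured 1:1 (1,500 cells each) with CellTrace Violet stained primary or stromal fibroblasts in 384-well plates in FluoroBrite medium, treated with one of 42 anticancer drugs at 0.1, 1, 10 or 100 uM. JC-1 red fluorescence (mitochondrial integrity in cancer cells only) was read by plate reader every 8 h for 72 h. Values are normalised to each well's pre-drug value. The stock of one drug was tenfold lower, so its dose labels may be too high.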

CO[C@@]12[C@H](COC(N)=O)C3=C(C(=O)C(C)=C(N)C3=O)N1C[C@@H]1N[C@@H]12 [Mitomycin C]
relative JC-1 red fluorescence
Details	8 h	16 h	24 h	32 h	40 h	48 h	56 h	64 h	72 h
0.1 µM	0.919 ± 0.03	0.834 ± 0.053	0.818 ± 0.064	0.797 ± 0.065	0.745 ± 0.064	0.722 ± 0.075	0.705 ± 0.072	0.669 ± 0.066	0.66 ± 0.07
1 µM	0.895 ± 0.021	0.795 ± 0.029	0.7415 ± 0.0021	0.70673 ± 0.0003	0.659 ± 0.0071	0.618 ± 0.025	0.604 ± 0.024	0.572 ± 0.035	0.557 ± 0.042

relative JC-1 red fluorescence
Details	8 h	16 h	24 h	32 h	40 h	48 h	56 h	64 h	72 h
0.1 µM, coculture fibroblast: C12385	0.8366 ± 0.0013	0.7562 ± 0.0029	0.7315 ± 0.0005	0.6276 ± 0.0039	0.5756 ± 0.0041	0.557 ± 0.0057	0.528 ± 0.0066	0.521 ± 0.0089	0.513 ± 0.015
0.1 µM, coculture fibroblast: H6013	0.883 ± 0.01	0.816 ± 0.013	0.752 ± 0.011	0.717 ± 0.013	0.665 ± 0.022	0.636 ± 0.012	0.602 ± 0.016	0.579 ± 0.012	0.535 ± 0.011
0.1 µM, coculture fibroblast: H6019	0.75 ± 0.023	0.624 ± 0.012	0.575 ± 0.034	0.463 ± 0.051	0.401 ± 0.06	0.359 ± 0.067	0.315 ± 0.068	0.281 ± 0.063	0.258 ± 0.062
0.1 µM, coculture fibroblast: H6076	0.909 ± 0.027	0.8243 ± 0.006	0.796 ± 0.053	0.791 ± 0.083	0.746 ± 0.1	0.741 ± 0.11	0.702 ± 0.14	0.689 ± 0.15	0.662 ± 0.15
0.1 µM, coculture fibroblast: H6231	0.9142 ± 0.0035	0.823 ± 0.016	0.74 ± 0.0095	0.694 ± 0.011	0.624 ± 0.016	0.595 ± 0.021	0.545 ± 0.017	0.518 ± 0.016	0.489 ± 0.0092
0.1 µM, coculture fibroblast: HADF	0.896 ± 0.013	0.855 ± 0.032	0.769 ± 0.049	0.721 ± 0.061	0.676 ± 0.067	0.641 ± 0.075	0.591 ± 0.068	0.568 ± 0.068	0.526 ± 0.08
0.1 µM, coculture fibroblast: HCFa	0.867 ± 0.021	0.789 ± 0.0081	0.723 ± 0.027	0.683 ± 0.032	0.614 ± 0.034	0.586 ± 0.041	0.549 ± 0.043	0.52 ± 0.041	0.479 ± 0.046
0.1 µM, coculture fibroblast: HCPF	0.9075 ± 0.0035	0.8108 ± 0.0078	0.771 ± 0.015	0.739 ± 0.0086	0.6865 ± 0.0066	0.66 ± 0.011	0.63935 ± 0.00016	0.6012 ± 0.0022	0.574 ± 0.0097
0.1 µM, coculture fibroblast: HHSteC	0.932 ± 0.062	0.835 ± 0.054	0.81 ± 0.079	0.79 ± 0.12	0.75 ± 0.15	0.732 ± 0.16	0.709 ± 0.16	0.694 ± 0.17	0.656 ± 0.18
0.1 µM, coculture fibroblast: HMF	0.9373 ± 0.0029	0.857 ± 0.023	0.784 ± 0.036	0.762 ± 0.043	0.698 ± 0.043	0.663 ± 0.037	0.62 ± 0.034	0.603 ± 0.038	0.582 ± 0.045
0.1 µM, coculture fibroblast: HPFa	0.9333 ± 0.0063	0.835 ± 0.013	0.771 ± 0.031	0.71 ± 0.044	0.662 ± 0.065	0.623 ± 0.067	0.577 ± 0.076	0.55 ± 0.069	0.5 ± 0.074
0.1 µM, coculture fibroblast: HUF	0.8797 ± 0.0049	0.76 ± 0.018	0.73 ± 0.0066	0.625 ± 0.018	0.567 ± 0.024	0.534 ± 0.034	0.501 ± 0.042	0.488 ± 0.04	0.471 ± 0.04
0.1 µM, coculture fibroblast: Hs27A	0.882 ± 0.02	0.809 ± 0.021	0.775 ± 0.0085	0.7315 ± 0.0049	0.686 ± 0.012	0.672 ± 0.021	0.646 ± 0.035	0.629 ± 0.051	0.578 ± 0.063
0.1 µM, coculture fibroblast: Hs343T	0.941 ± 0.025	0.845 ± 0.012	0.7631 ± 0.0022	0.74 ± 0.0083	0.662 ± 0.015	0.623 ± 0.0068	0.5666 ± 0.0036	0.534 ± 0.0039	0.505 ± 0.01
0.1 µM, coculture fibroblast: WS1	0.803 ± 0.011	0.68 ± 0.012	0.6373 ± 0.0028	0.5617 ± 0.0013	0.5012 ± 0.0022	0.485 ± 0.0082	0.4455 ± 0.0008	0.4309 ± 4.8e-05	0.4222 ± 0.0026
1 µM, coculture fibroblast: C12385	0.77077 ± 0.00062	0.673 ± 0.048	0.612 ± 0.067	0.519 ± 0.055	0.454 ± 0.04	0.418 ± 0.038	0.392 ± 0.038	0.376 ± 0.039	0.365 ± 0.046
1 µM, coculture fibroblast: H6013	0.829 ± 0.011	0.78 ± 0.015	0.7209 ± 0.00077	0.671 ± 0.018	0.634 ± 0.04	0.607 ± 0.051	0.56 ± 0.057	0.536 ± 0.061	0.504 ± 0.062
1 µM, coculture fibroblast: H6019	0.749 ± 0.0039	0.657 ± 0.063	0.625 ± 0.12	0.51 ± 0.12	0.445 ± 0.14	0.4 ± 0.14	0.363 ± 0.14	0.333 ± 0.14	0.308 ± 0.13
1 µM, coculture fibroblast: H6076	0.977 ± 0.021	0.885 ± 0.05	0.79 ± 0.048	0.739 ± 0.044	0.669 ± 0.053	0.633 ± 0.047	0.582 ± 0.042	0.541 ± 0.038	0.51 ± 0.034
1 µM, coculture fibroblast: H6231	0.911 ± 0.038	0.782 ± 0.04	0.717 ± 0.023	0.663 ± 0.017	0.588 ± 0.025	0.554 ± 0.018	0.514 ± 0.0087	0.49 ± 0.017	0.463 ± 0.01
1 µM, coculture fibroblast: HADF	0.838 ± 0.0099	0.779 ± 0.014	0.71 ± 0.026	0.638 ± 0.039	0.595 ± 0.046	0.564 ± 0.041	0.522 ± 0.041	0.505 ± 0.035	0.469 ± 0.032
1 µM, coculture fibroblast: HCFa	0.799 ± 0.016	0.748 ± 0.023	0.695 ± 0.021	0.6466 ± 0.0056	0.59439 ± 0.00045	0.57875 ± 3.9e-05	0.549 ± 0.0068	0.5317 ± 0.0008	0.4968 ± 0.0023
1 µM, coculture fibroblast: HCPF	0.88522 ± 0.00049	0.771 ± 0.031	0.739 ± 0.039	0.7 ± 0.041	0.642 ± 0.045	0.627 ± 0.042	0.614 ± 0.039	0.574 ± 0.036	0.552 ± 0.028
1 µM, coculture fibroblast: HHSteC	0.8315 ± 0.0068	0.758 ± 0.027	0.687 ± 0.029	0.637 ± 0.033	0.585 ± 0.035	0.548 ± 0.035	0.517 ± 0.042	0.489 ± 0.041	0.452 ± 0.041
1 µM, coculture fibroblast: HMF	0.9199 ± 0.0089	0.831 ± 0.024	0.771 ± 0.049	0.737 ± 0.062	0.685 ± 0.071	0.65 ± 0.075	0.624 ± 0.07	0.588 ± 0.069	0.568 ± 0.077
1 µM, coculture fibroblast: HPFa	0.894 ± 0.012	0.79 ± 0.018	0.734 ± 0.025	0.68 ± 0.03	0.645 ± 0.025	0.619 ± 0.027	0.577 ± 0.028	0.558 ± 0.033	0.519 ± 0.035
1 µM, coculture fibroblast: HUF	0.846 ± 0.044	0.686 ± 0.038	0.657 ± 0.052	0.552 ± 0.052	0.487 ± 0.046	0.454 ± 0.045	0.421 ± 0.044	0.409 ± 0.05	0.4 ± 0.055
1 µM, coculture fibroblast: Hs27A	0.855 ± 0.021	0.767 ± 0.036	0.757 ± 0.069	0.713 ± 0.092	0.661 ± 0.095	0.65 ± 0.12	0.615 ± 0.13	0.604 ± 0.14	0.548 ± 0.14
1 µM, coculture fibroblast: Hs343T	0.928 ± 0.019	0.783 ± 0.013	0.705 ± 0.019	0.67 ± 0.035	0.592 ± 0.042	0.557 ± 0.056	0.523 ± 0.057	0.489 ± 0.051	0.465 ± 0.068
1 µM, coculture fibroblast: WS1	0.783 ± 0.022	0.69 ± 0.047	0.665 ± 0.061	0.559 ± 0.052	0.504 ± 0.049	0.485 ± 0.055	0.459 ± 0.064	0.454 ± 0.064	0.442 ± 0.072

± gives the standard deviation of the averaged measurements. The reference is the same well before dosing, and untreated signal decays as well.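 Labels refer to human fibroblasts, largely primary: uterine (C12385, HUF), lung (H6013), bone (Hs27A), adrenal (HADF), skin (WS1), plus mammary HMF and breast cancer-associated Hs343T. Cancer lines are basal-like or mesenchymal-like triple-negative breast cancer. The paper counts as hits responses shifting over 3x the replicate standard deviation. The tissue of the other fibroblasts is not given here.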
